According to article PMC10831259:
Results are given in words; binding and its absence hold for the method and conditions named. In cells and extracts the contact can be indirect. Some entries that bind do so weakly or less than the wild type.

By UniProt entry, the sequences of proteins in these tests, tags left out.
UniProt P09211: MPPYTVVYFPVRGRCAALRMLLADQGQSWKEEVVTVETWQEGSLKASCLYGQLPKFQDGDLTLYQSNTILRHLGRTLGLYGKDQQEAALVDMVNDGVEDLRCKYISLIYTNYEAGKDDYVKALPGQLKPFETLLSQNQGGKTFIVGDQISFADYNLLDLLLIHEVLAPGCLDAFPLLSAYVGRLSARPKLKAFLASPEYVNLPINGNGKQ
UniProt P19157: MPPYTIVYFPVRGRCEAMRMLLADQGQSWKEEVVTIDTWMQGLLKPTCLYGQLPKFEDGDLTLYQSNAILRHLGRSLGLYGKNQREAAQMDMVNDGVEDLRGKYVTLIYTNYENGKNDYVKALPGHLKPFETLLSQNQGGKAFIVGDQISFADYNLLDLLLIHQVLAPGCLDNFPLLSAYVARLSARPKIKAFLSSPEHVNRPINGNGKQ

Experiments:
FLAG-tagged GSTP1 = FLAG-tagged GSTP1 (UniProt P09211); test: co-IP; lysates of HEK293T cells transfected with FLAG-tagged GSTP1 and/or V5-tagged Kindlin-2 (full-length or truncated Kindlin-2 in panel H, extracts 48 h after cotransfection), IP and IB with the indicated antibodies
V5-tagged Kindlin-2 = V5-tagged Kindlin-2 (UniProt Q96AC1); test: as above
[1] = target: T1, Kindlin-2 (mouse (endogenous in liver tissue)) (UniProt Q8CIB5); test: co-IP; liver tissue lysates, immunoprecipitation with the indicated antibodies at 4 °C overnight, immunoblotting; called a pull-down assay in the text
T1 sequence: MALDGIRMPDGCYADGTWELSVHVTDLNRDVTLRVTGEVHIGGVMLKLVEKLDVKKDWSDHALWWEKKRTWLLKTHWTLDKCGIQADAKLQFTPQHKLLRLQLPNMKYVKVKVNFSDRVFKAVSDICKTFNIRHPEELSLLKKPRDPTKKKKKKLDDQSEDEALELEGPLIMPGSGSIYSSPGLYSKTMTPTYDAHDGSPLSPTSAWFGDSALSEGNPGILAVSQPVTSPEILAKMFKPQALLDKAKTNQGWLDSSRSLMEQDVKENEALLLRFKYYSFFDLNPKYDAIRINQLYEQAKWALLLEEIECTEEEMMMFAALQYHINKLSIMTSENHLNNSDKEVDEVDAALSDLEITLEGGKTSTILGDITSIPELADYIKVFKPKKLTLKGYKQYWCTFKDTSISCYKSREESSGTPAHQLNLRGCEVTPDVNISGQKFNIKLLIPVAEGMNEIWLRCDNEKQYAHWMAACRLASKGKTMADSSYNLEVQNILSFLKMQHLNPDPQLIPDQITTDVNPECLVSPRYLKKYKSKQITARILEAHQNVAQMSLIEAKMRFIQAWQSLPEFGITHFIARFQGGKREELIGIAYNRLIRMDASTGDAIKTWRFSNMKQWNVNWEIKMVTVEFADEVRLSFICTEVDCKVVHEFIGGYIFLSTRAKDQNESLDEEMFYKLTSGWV

[2] = target: endogenous GSTP1 (human (endogenous in Huh7)) (UniProt P09211); test: co-IP; Huh7 cells, endogenous proteins, IP with anti-Kindlin-2 or anti-GSTP1 antibody and IB

Substance: V5-tagged Kindlin-2 (from UniProt Q96AC1 1-680)
- binding (FLAG-tagged GSTP1): binds

Substance: FLAG-tagged GSTP1 (from UniProt P09211 1-210)
- binding (V5-tagged Kindlin-2): binds

Substance: glutathione-S-transferase P1 (from UniProt P19157 1-210)
- binding [1]: binds

Substance: endogenous Kindlin-2 (from UniProt Q96AC1 1-680)
- binding [2]: binds
